Values from PubChem BioAssay AID504786 (Drosophila RNAi Screening Center, 2011).
The deposit covers about 21,000 reagents; this is an unselected part of those that have a named target and a result. 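Primary screen; positive scores mean lost reporter signal, so the sign may be inverted from the usual convention.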 A plus sign joins genes that one reagent is predicted to hit. Not all columns of the deposit are shown. Reagent sequences are not shown.

- Assay: 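Fly genes required for HIF-dependent transcription when hypoxia is mimicked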 (primary screen)
- System: Drosophila S2 cells with a stable HIF luciferase reporter
- Reagents: long dsRNA against Drosophila genes, about 0.2 µg dsRNA per well of a 384-well plate
- Duration: three days of knock-down, then 20 h of DFO before reading
- Conditions: desferrioxamine (DFO) at 100 µM, an iron chelator that mimics hypoxia, for 20 h
- Read-out: 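Firefly luciferase driven by the mouse ldh-a hypoxia-response element, measured after 20 h of 100 µM DFO; z-scores per plate, higher means more signal lost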
- Direction: z-score: higher = stronger loss of HIF reporter signal

| Target gene | dsRNA | z-score, replicate 1 | z-score, replicate 2 |
| --- | --- | --- | --- |
| CG13051 | DRSC09932 | -0.4 | -0.3 |
| Grik | DRSC15846 | -0.2 | -0.2 |
| Grik | DRSC15847 | 0.1 | -0.2 |
| CG13891 | DRSC08361 | -0.4 | 0.9 |
| Jhbp7 (Juvenile hormone binding protein 7) | DRSC14408 | -0.3 | -0.2 |
| Pef (Peflin) | DRSC06695 | -0.4 | -0.5 |
| in (inturned) | DRSC11888 | -0.2 | -0.1 |
| nero | DRSC15432 | 0.7 | 0.7 |
| GstE13 (Glutathione S transferase E13) | DRSC06083 | -0.4 | -0.5 |
| boss (bride of sevenless) | DRSC16916 | -0.5 | -0.8 |
| CG4928 | DRSC19342 | -0.3 | -0.3 |
| CG15741 | DRSC19707 | -0.3 | 0.3 |
| Ide (Insulin degrading metalloproteinase) | DRSC11867 | -0.3 | -0.4 |
| CG14218 | DRSC19575 | -0.5 | -0.4 |
| CG33160 | DRSC08197 | -0.5 | -0.4 |
| CG13204 | DRSC06328 | -0.3 | -0.6 |
| ND-B14.5A (NADH dehydrogenase (ubiquinone) B14.5 A subunit) | DRSC18500 | -0.2 | 0 |
| ste24b (ste24b prenyl protease type I) | DRSC07315 | -0.2 | 0.3 |
| CG3097 | DRSC18275 | -0.2 | -0.4 |
| CG11241 | DRSC11641 | -0.3 | -0.2 |
| CG13364 | DRSC17898 | -0.4 | -0.4 |
| CG13364 | DRSC21263 | 0.1 | 0.1 |
| CG4594 | DRSC02762 | -0.2 | 0.1 |
| SH3PX1 (SH3 and PX domain containing 1) | DRSC11139 | -0.3 | 0 |
| CG10654 | DRSC09767 | -0.2 | 0.4 |
| baf (barrier to autointegration factor) | DRSC03051 | -0.2 | -0.1 |
| CG8248 | DRSC07124 | -0.3 | -0.3 |
| CecA1 (Cecropin A1) | DRSC16603 | 0.7 | 1.2 |
| CG13594 | DRSC04229 | -0.4 | -0.8 |
| mof (males absent on the first) | DRSC18795 | 0.1 | 0.2 |
| Gld2 (GLD2 poly(A) polymerase) | DRSC15863 | 2.6 | -0.6 |
| RpL27A (Ribosomal protein L27A) | DRSC00781 | 6.1 | 6.5 |
| Mob4 (MOB kinase activator 4) | DRSC04993 | 0.1 | 0.1 |
| CARPA (Carbonic anhydrase-related protein A) | DRSC17905 | -0.2 | -0.1 |
| danr (distal antenna-related) | DRSC14651 | -0.4 | -0.4 |
| CG41520 | DRSC21102 | -0.2 | -0.2 |
| CG41520 | DRSC21103 | -0.1 | -0.4 |
| CG15312 | DRSC18000 | 0.2 | 0.5 |
| DopEcR (Dopamine/Ecdysteroid receptor) | DRSC08529 | -0.3 | -0.5 |
| CG2200 | DRSC19840 | -0.3 | -1.1 |
| mod(mdg4) + pre-mod(mdg4)-Z + pre-mod(mdg4)-T | DRSC13477 | 0.6 | -0.1 |
| mod(mdg4) + pre-mod(mdg4)-Z + pre-mod(mdg4)-T | DRSC17001 | 0.2 | 0.9 |
| CG13409 | DRSC14585 | 0.2 | -0.1 |
| Sld5 | DRSC14892 | -0.1 | 0.2 |
| mfas (midline fasciclin) | DRSC16997 | -0.2 | -0.5 |
| ort (ora transientless) | DRSC16240 | -0.3 | 0.3 |
| CG1468 | DRSC17946 | -0.3 | -0.4 |
| DIP-alpha (Dpr-interacting protein alpha) | DRSC17891 | -0.7 | -0.4 |
| DIP-alpha (Dpr-interacting protein alpha) | DRSC17892 | 1.2 | 1.2 |
| CG2162 | DRSC08557 | 0.3 | 1 |
| CG12325 | DRSC06130 | 0 | 0.8 |
| CG43999 | DRSC14605 | -0.3 | -0.2 |
| CAHbeta (Carbonic anhydrase beta) | DRSC14449 | -0.4 | -0.3 |
| CG15429 | DRSC00444 | 0 | 0 |
| Prosbeta2 (Proteasome beta2 subunit) | DRSC11257 | 5.8 | 4.3 |
| Glut3 (Glucose transporter type 3) | DRSC16681 | -0.3 | -0.6 |

Sorted by “z-score, replicate 1” (lowest first): 4 of the entries above
| Target gene | dsRNA | z-score, replicate 1 | z-score, replicate 2 |
| --- | --- | --- | --- |
| CAHbeta (Carbonic anhydrase beta) | DRSC14449 | -0.4 | -0.3 |
| CG43999 | DRSC14605 | -0.3 | -0.2 |
| CG12325 | DRSC06130 | 0 | 0.8 |
| CG2162 | DRSC08557 | 0.3 | 1 |
